The other results are listed elsewhere or left out.
The sequences below were run against T1, OsSMF1 (Oryza sativa, UniProt Q6ZLB0 1-436) (assay: protein-binding microarray (RPBM); PBS, 2% BSA, 51.3 ng/ul salmon testes DNA, 50 uM zinc acetate, 200 nM TF, 25 C, 1 h; high values mean tight binding). Details: protein: recombinant; tags: N-terminal polyhistidine and DsRed monomer fusion (pET32a); chain copies: 2; label: CyDye5-dUTP incorporated in the synthesized complementary strand; 3' TTTTT single-stranded linker to array surface; dsDNA, one strand shown.
T1 sequence: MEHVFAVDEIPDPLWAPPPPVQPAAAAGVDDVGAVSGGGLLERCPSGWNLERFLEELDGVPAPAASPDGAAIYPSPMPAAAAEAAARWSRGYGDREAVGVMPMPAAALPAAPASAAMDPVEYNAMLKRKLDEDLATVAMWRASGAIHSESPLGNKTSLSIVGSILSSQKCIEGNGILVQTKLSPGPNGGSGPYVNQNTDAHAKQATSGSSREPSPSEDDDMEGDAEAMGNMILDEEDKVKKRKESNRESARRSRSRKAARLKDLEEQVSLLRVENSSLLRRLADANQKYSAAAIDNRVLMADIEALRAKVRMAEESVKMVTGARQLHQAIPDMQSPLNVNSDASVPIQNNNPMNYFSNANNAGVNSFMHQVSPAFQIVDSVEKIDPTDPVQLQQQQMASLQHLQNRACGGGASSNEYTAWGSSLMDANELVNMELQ
How it was run: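 The binding signal for each feature is its fluorescence intensity in arbitrary units. An Axon 4000B scanner was used to read a custom Agilent array that had been made double-stranded with Cy5-dUTP primer extension, blocked with 2% BSA, incubated at 25 °C for 1 h with 200 nM protein in PBS, 2% BSA, salmon testes DNA and 50 µM zinc acetate, and washed. The protein was an N-terminal polyhistidine–DsRed transcription factor fusion from E. coli BL21-CodonPlus, purified on Ni–NTA.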
With “GGCCCATCGGCTAAGCACCCACATGTCGCGCTCGCACGCACGGAGTCACCTAGTGCAG” the binding signal was 3640 fluorescence intensity (a.u.). In the case of “TTGTGTGCTCCACATCACTCCAAACCCTCTGTCCCAATCACGGAGTCACCTAGTGCAG”, the binding signal is reported as 7950 fluorescence intensity (a.u.). “CAAACTTCTTAGCGCACCACGTCGCCGTCAAGCGAGCGCTCGGAGTCACCTAGTGCAG” was tested, and the binding signal was 3480 fluorescence intensity (a.u.). In the case of “TCCTCTTCCCCAGACCCTGTCACGTCGGTACGGGTTGTCGCGGAGTCACCTAGTGCAG”, the binding signal is reported as 3760 fluorescence intensity (a.u.). For “ACCTACCCTGTGGTTTCCAGCCAAGCATACACGCATGCCACGGAGTCACCTAGTGCAG”, the binding signal was 4140 fluorescence intensity (a.u.). “TGTGCCATTGTCACTGACATGTGGGCCGCGCGCGGCGCACCGGAGTCACCTAGTGCAG” was tested, and the binding signal was 3340 fluorescence intensity (a.u.). With “TCGAGTGAGATATAGCAAAATCGGGTTGAAAATGACATCACGGAGTCACCTAGTGCAG” the binding signal was 3220 fluorescence intensity (a.u.). With “ACCCGAAGACCAACCTATCTACGAGACCAACCACCAAATCCGGAGTCACCTAGTGCAG” the binding signal was 37900 fluorescence intensity (a.u.). In the case of “CGTGCCTACGCAGCGCCGCGCCGCACAGCCTAGCCTACGTCGGAGTCACCTAGTGCAG”, the binding signal is reported as 5090 fluorescence intensity (a.u.). For “ATCGGTCCCCGAGGGAGGTTCAGGCCACCGTCTTCGGCTTCGGAGTCACCTAGTGCAG”, the binding signal was 3180 fluorescence intensity (a.u.). “AATGTTTCATCACATCACTGAGGAGGACCGTGCGATGTTTCGGAGTCACCTAGTGCAG” was tested, and the binding signal was 3770 fluorescence intensity (a.u.). For “CTACTCCTTCTGCTCCTGCTGACTATCGTGCTCCACCTTTCGGAGTCACCTAGTGCAG”, the binding signal was 3870 fluorescence intensity (a.u.). For “ATTCAATCCACGTTGGTTTTATGGGCCGTCTCACCGTGACCGGAGTCACCTAGTGCAG”, the binding signal was 6480 fluorescence intensity (a.u.). With “GCTGTGGGTAGGCCGGCGCCGCCGGCCGACGGGTGGGGAGCGGAGTCACCTAGTGCAG” the binding signal was 3980 fluorescence intensity (a.u.). “CTGGCGTATCAGTAGCCATGTCATATGTGTAAAGTGTTTGCGGAGTCACCTAGTGCAG” was tested, and the binding signal was 4560 fluorescence intensity (a.u.). For “TAGGATCCAAGCCATGCATCTCTATTTATACACCTGCTCGCGGAGTCACCTAGTGCAG”, the binding signal was 3160 fluorescence intensity (a.u.). In the case of “AATGTTGAATGTTTGAGGTGTTACAGCATTTGACTCATGCCGGAGTCACCTAGTGCAG”, the binding signal is reported as 4200 fluorescence intensity (a.u.). For “AGCTACGCCCACGCGAGCCGCGCACCCACGCGTGGGTACACGGAGTCACCTAGTGCAG”, the binding signal was 4100 fluorescence intensity (a.u.). With “AATTATTGAGGCTAACCTTTTGTACATGTCAGCTCATCTCCGGAGTCACCTAGTGCAG” the binding signal was 5280 fluorescence intensity (a.u.). “ATCACCTCCTGTACACATCATCTGAACCAGCCAGCAGGCACGGAGTCACCTAGTGCAG” was tested, and the binding signal was 5390 fluorescence intensity (a.u.). For “GCTCTAATCATTGATGACATATATAAGCTTGACTTGGTCACGGAGTCACCTAGTGCAG”, the binding signal was 4370 fluorescence intensity (a.u.). With “AATCCTTGTTCTCCCTGACGTGTTTTAGGATGTGATGGCCCGGAGTCACCTAGTGCAG” the binding signal was 7310 fluorescence intensity (a.u.). “GCGGAAAGGGAAAGGCCCGACGAATGGGAGGAATCATATACGGAGTCACCTAGTGCAG” was tested, and the binding signal was 40300 fluorescence intensity (a.u.). In the case of “CTACGACCGGCTGCCTCGTCACGCCGGCATCTGTCGCTCTCGGAGTCACCTAGTGCAG”, the binding signal is reported as 9820 fluorescence intensity (a.u.). For “TTGACAGCTTAAGAAAGCACGCGTCACCACTATGAGATTGCGGAGTCACCTAGTGCAG”, the binding signal was 5300 fluorescence intensity (a.u.). In the case of “GTATGTGTGTCATGCTCTTTCAGCAGCATCAGCAATCAAACGGAGTCACCTAGTGCAG”, the binding signal is reported as 4430 fluorescence intensity (a.u.). In the case of “GAAGTTCATACTGTAGCAATTAGATGCCAGTATGCCACCGCGGAGTCACCTAGTGCAG”, the binding signal is reported as 3530 fluorescence intensity (a.u.). For “TTGTGGAGTCATGTAGTAGTACACCATCAATGTGGCACACCGGAGTCACCTAGTGCAG”, the binding signal was 5170 fluorescence intensity (a.u.). “CATGTACTAGTAGTCTAGTAGTACAACTCATCAGAAAAGGCGGAGTCACCTAGTGCAG” was tested, and the binding signal was 3180 fluorescence intensity (a.u.). For “GGTATTTCCTTAACATACAAGTTTGGAATTTAACCCAAGTCGGAGTCACCTAGTGCAG”, the binding signal was 24500 fluorescence intensity (a.u.). “ACCACTATCACACAGTGGGATCGCTTACGTCATATACTTTCGGAGTCACCTAGTGCAG” was tested, and the binding signal was 10700 fluorescence intensity (a.u.). With “ATATCATAAACACATGTGGATCCACATGTCATTGAGATAGCGGAGTCACCTAGTGCAG” the binding signal was 5360 fluorescence intensity (a.u.). For “AACAAACCATTCCTAGTACACTCCTCGGCACACGTGCGCGCGGAGTCACCTAGTGCAG”, the binding signal was 3470 fluorescence intensity (a.u.). With “ACACTATACATAGTTTCCATAAACTCCACATCATCAAGAACGGAGTCACCTAGTGCAG” the binding signal was 5590 fluorescence intensity (a.u.). “CAGACGCGGCACGGTACGTGCACAGATAGTTCGCCGACGACGGAGTCACCTAGTGCAG” was tested, and the binding signal was 3310 fluorescence intensity (a.u.). “GCTCACCTCCAAAGCCGCGTTCCTGTCACTCGGCCACACTCGGAGTCACCTAGTGCAG” was tested, and the binding signal was 3720 fluorescence intensity (a.u.). In the case of “GTGTTGTTTTACCTGTATAATGTTGTGTATGCTCATATATCGGAGTCACCTAGTGCAG”, the binding signal is reported as 4000 fluorescence intensity (a.u.). For “TGGTGGTGGAAATTTTGGAAATCGTGAGGGCTACACATACCGGAGTCACCTAGTGCAG”, the binding signal was 3550 fluorescence intensity (a.u.). “TCCTCTTCCTACAGAGGACAGGGATGACAGCAACCTTACTCGGAGTCACCTAGTGCAG” was tested, and the binding signal was 3150 fluorescence intensity (a.u.). With “GTGAACACAATTCACCAGCATCATCAACATGACGTCCCTGCGGAGTCACCTAGTGCAG” the binding signal was 3980 fluorescence intensity (a.u.). In the case of “TATAGTGGCAACGCATGCTGACGTTACGGTGTACCGCCGTCGGAGTCACCTAGTGCAG”, the binding signal is reported as 5900 fluorescence intensity (a.u.). “GGAATGTGGAAGTGATAGAAACCGGATAAGCACATTTTCTCGGAGTCACCTAGTGCAG” was tested, and the binding signal was 31600 fluorescence intensity (a.u.).

From article PMC7819943, “Rice protein-binding microarrays: a tool to detect cis-acting elements near promoter regions in rice”
